Results published in publication PMC9785441, “A Broad Spectrum Antiparasitic Activity of Organotin (IV) Derivatives and Its Untargeted Proteomic Profiling Using Leishmania donovani” (Pathogens, 2022).

Tested on: L. donovani-infected B10R cells
Experiment: Untargeted proteomics of L. donovani-infected B10R cells treated and untreated with MS26Et3
Type: cell-based, mouse / Leishmania donovani
Protocol: B10R culture cells (infected or uninfected with Leishmanaia donovani) were collected and washed twice in cold PBS. The cell pellets (~10^6 cells/pellet) were snap-frozen and stored at −80 °C. To extract the proteins, pellets were thawed, and the cells were resuspended in 200 µL buffer containing 6 M urea, 7% SDS, 50 mM TEAB, protease inhibitor cocktail (Roche, cat. no. A32963), phosphatase inhibitor (Roche, cat. no. A32957), with pH adjusted to 8.1 with phosphoric acid. The cells were then lysed using a sonicating probe 200 µL. The samples were reduced in 500 mM DTT at 47 °C for 30 min and alkylated in 500 mM IAA in the absence of light, at room temperature for 45 min, followed by quenching in 500 mM DTT for 5 min. The samples were then acidified with 12% phosphoric acid and mixed in a 7:1 ratio with binding buffer containing 90% methanol, 50 mM TEAB, pH 7.1, adjusted with phosphoric acid and loaded on to S-Trap columns (Protifi). […] The concentration of desalted peptides was determined and 50 µg aliquots of each sample were dried in a speed vacuum concentrator. […]
Basic pH reverse-phase LC and data acquisition through LC–MS2/MS3 were performed as previously described. […] Fractions were then analyzed using tandem mass spectrometry (MS2/MS3) on an Orbitrap Fusion mass spectrometer (ThermoFisher, Waltham, MA, USA) with an in-line EASY-nLC 1000 instrument (ThermoFisher, Waltham, MA, USA). […]

C[CH2][Sn]([CH2]C)([CH2]C)[O]C(=O)CCC(=O)Nc1ccc(OC)cc1 [MS26Et3]
L. donovani protein Rab7 (Uniprot B1NI99), change in abundance (LD proteins detected in L. donovani-infected B10R cells, treated vs untreated with MS26Et3, sheet "LD Proteins Detected"): Rab7 Only Significant Changed….
number of host proteins decreased in abundance (infected B10R cells exposed to compound vs not exposed): 238
